Results are given in words; binding and its absence hold for the method and conditions named. In cells and extracts the contact can be indirect. Some binding calls cover weakened binding; strength is not graded here.
Key:
[1] = biological target: T1, SSI (Oryza sativa subsp. indica cv. IR36 (endogenous in developing seeds)) (UniProt A2Y9M4); experiment: co-IP; soluble proteins of developing seeds of the be2b mutant at 10 DAF incubated with isozyme-specific antibodies and protein A magnetic beads; washed with PBS pH 7.4; Western blotting
T1 sequence: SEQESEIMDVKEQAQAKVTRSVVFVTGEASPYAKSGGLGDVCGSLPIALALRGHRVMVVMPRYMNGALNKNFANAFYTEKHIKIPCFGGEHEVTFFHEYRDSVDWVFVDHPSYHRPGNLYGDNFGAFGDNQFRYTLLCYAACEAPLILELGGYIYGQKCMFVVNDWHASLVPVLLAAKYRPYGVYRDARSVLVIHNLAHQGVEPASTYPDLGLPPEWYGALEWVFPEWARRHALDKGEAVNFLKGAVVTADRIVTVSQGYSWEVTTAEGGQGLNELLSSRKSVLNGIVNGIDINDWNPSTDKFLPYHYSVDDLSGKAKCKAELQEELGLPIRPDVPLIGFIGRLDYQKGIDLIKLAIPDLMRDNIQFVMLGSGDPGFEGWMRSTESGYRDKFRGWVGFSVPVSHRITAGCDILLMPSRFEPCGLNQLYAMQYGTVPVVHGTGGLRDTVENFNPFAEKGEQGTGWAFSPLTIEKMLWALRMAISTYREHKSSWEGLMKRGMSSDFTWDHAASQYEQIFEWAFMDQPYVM

By UniProt entry, the sequences of proteins in these tests, tags left out. Residues count along the entry.
UniProt A0A0P0XCU3, residues 50-1875: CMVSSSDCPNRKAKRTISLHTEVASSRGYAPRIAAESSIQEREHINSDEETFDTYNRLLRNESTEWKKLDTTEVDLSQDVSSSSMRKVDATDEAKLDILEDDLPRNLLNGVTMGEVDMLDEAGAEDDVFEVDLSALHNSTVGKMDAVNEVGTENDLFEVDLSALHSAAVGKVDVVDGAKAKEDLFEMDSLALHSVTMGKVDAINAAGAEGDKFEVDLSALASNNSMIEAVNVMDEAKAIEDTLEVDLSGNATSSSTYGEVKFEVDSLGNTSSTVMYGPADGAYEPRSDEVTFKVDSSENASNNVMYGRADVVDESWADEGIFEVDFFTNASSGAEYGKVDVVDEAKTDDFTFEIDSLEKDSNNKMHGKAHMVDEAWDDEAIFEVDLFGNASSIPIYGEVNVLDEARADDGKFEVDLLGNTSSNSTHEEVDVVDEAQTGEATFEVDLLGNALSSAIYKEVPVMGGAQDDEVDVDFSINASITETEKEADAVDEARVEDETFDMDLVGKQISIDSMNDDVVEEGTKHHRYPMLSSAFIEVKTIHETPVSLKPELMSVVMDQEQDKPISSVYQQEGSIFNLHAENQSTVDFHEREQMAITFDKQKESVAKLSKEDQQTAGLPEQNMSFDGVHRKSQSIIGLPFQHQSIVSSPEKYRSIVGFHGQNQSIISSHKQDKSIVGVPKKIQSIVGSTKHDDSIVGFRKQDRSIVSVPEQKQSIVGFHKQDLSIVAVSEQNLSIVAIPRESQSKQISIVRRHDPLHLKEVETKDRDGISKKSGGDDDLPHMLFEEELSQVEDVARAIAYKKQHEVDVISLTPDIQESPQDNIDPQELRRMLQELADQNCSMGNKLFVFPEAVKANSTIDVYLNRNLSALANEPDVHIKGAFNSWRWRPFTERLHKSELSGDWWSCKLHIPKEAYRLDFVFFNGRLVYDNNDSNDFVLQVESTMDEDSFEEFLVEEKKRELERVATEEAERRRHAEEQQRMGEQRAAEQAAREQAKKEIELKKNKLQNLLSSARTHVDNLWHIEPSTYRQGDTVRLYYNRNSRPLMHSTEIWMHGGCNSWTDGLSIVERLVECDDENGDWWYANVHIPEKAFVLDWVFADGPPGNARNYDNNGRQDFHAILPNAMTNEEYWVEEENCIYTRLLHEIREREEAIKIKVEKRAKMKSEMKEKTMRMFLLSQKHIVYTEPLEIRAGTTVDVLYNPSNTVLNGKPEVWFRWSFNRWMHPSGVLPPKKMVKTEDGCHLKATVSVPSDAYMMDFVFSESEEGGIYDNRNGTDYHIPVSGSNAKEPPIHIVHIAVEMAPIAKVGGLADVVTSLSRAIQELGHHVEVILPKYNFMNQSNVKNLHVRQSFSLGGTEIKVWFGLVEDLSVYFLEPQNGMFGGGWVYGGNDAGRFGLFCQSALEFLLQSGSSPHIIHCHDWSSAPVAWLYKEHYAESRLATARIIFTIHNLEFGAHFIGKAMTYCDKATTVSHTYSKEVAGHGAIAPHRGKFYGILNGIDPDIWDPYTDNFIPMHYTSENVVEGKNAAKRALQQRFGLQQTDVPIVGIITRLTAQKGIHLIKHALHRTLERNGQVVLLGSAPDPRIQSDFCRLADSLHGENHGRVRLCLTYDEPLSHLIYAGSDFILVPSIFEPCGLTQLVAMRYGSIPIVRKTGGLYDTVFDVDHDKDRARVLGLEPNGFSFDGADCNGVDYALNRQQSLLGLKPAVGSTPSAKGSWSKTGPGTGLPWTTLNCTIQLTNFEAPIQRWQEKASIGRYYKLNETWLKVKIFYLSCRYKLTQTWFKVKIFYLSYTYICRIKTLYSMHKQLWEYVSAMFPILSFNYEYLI

[2] = biological target: T2, SSIIa (Oryza sativa subsp. indica cv. IR36 (endogenous in developing seeds)) (UniProt P0C586); experiment: as above
T2 sequence: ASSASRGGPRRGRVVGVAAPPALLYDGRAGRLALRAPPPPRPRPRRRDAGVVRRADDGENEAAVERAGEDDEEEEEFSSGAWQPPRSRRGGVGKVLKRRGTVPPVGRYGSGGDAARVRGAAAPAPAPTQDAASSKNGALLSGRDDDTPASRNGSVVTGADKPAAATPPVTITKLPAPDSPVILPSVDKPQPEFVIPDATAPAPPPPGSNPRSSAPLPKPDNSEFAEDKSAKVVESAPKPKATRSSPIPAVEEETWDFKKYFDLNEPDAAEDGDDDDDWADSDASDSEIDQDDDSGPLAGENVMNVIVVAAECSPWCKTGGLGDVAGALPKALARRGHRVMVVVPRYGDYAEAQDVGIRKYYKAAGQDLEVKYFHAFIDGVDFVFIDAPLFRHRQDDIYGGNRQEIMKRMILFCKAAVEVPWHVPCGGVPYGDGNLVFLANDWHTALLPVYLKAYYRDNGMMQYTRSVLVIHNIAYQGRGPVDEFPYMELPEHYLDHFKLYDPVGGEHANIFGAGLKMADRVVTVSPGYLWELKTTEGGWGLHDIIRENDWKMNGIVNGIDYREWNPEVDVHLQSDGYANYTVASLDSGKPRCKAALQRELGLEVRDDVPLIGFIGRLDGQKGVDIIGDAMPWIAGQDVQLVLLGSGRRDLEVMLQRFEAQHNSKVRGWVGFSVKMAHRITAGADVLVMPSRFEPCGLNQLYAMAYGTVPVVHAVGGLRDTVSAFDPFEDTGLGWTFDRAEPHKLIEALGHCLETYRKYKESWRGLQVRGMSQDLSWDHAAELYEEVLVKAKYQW

[3] = biological target: T1, SSI (Oryza sativa subsp. indica cv. IR36 (endogenous in developing seeds)); experiment: co-IP; soluble proteins of developing seeds of WT (IR36) at 10 DAF incubated with isozyme-specific antibodies and protein A magnetic beads; washed with PBS pH 7.4; Western blotting
[4] = biological target: T2, SSIIa (Oryza sativa subsp. indica cv. IR36 (endogenous in developing seeds)); experiment: as above
[5] = biological target: T3, BEI (Oryza sativa subsp. indica cv. IR36 (endogenous in developing seeds)) (UniProt Q01401); experiment: co-IP; soluble proteins of developing seeds of the be2b mutant at 5 DAF incubated with isozyme-specific antibodies and protein A magnetic beads; washed with PBS pH 7.4; Western blotting
T3 sequence: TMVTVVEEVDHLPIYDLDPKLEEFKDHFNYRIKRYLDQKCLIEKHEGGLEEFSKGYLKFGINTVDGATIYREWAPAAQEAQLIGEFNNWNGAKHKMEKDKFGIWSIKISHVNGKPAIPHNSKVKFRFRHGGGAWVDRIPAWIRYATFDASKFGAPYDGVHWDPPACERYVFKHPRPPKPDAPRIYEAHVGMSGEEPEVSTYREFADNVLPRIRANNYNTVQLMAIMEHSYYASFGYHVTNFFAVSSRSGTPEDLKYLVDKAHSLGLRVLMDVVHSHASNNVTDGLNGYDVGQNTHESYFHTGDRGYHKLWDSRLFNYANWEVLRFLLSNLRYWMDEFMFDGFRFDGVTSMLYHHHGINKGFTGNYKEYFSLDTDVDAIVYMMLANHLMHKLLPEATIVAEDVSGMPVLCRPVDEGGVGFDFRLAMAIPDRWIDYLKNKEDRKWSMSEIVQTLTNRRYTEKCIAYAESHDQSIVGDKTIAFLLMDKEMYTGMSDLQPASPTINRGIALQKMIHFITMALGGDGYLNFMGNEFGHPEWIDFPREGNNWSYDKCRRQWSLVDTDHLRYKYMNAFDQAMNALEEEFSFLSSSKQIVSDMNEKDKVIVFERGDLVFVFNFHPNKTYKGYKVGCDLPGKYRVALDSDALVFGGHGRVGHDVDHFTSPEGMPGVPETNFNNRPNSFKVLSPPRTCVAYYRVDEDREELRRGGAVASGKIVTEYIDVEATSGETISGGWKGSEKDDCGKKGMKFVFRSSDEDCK

[6] = biological target: T1, SSI (Oryza sativa subsp. indica cv. IR36 (endogenous in developing seeds)); experiment: co-IP; soluble proteins of developing seeds of the be2b mutant at 15 DAF incubated with isozyme-specific antibodies and protein A magnetic beads; washed with PBS pH 7.4; Western blotting
[7] = biological target: T3, BEI (Oryza sativa subsp. indica cv. IR36 (endogenous in developing seeds)); experiment: as above
[8] = biological target: T3, BEI (Oryza sativa subsp. indica cv. IR36 (endogenous in developing seeds)); experiment: co-IP; soluble proteins of developing seeds of WT (IR36) at 15 DAF incubated with isozyme-specific antibodies and protein A magnetic beads; washed with PBS pH 7.4; Western blotting

binding [1]: binds weakly
binding [2]: binds weakly
binding [3]: binds weakly
binding [4]: binds
binding [5]: binds weakly
binding [6]: binds weakly
binding [7]: binds weakly
binding [8]: binds weakly
Substance: SSIIIa (from UniProt A0A0P0XCU3 50-1875) (enzyme)
